# From the supplement of paper PMC12819154, “High-throughput peptide-centric local stability assay extends protein–ligand identification to membrane proteins, tissues and bacteria” (Nature Structural & Molecular Biology, 2025)
# The chains behind the UniProt entries cited, without tags or fusion partners. Where a name states a change or a piece, a line headed by the entry shows the natural chain unless it says otherwise.
# UniProt Q16891: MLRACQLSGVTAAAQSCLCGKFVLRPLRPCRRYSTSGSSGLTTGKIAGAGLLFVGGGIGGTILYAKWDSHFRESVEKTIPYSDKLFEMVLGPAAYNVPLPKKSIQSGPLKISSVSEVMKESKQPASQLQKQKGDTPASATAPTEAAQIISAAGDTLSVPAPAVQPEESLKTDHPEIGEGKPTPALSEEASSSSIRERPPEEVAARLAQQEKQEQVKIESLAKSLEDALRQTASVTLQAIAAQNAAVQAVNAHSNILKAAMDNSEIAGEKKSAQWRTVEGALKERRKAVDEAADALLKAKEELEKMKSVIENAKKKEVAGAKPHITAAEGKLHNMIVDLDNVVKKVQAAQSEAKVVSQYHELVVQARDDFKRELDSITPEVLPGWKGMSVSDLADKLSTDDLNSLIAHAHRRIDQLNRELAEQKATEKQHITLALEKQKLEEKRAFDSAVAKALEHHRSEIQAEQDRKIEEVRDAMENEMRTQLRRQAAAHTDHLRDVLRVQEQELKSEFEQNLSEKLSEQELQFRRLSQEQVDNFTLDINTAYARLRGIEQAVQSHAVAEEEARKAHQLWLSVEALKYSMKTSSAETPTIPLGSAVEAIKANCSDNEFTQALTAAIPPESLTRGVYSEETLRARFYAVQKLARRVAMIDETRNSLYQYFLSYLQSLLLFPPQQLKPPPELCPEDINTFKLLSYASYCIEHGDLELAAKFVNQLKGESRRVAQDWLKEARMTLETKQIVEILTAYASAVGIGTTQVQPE
# UniProt Q2KHR2: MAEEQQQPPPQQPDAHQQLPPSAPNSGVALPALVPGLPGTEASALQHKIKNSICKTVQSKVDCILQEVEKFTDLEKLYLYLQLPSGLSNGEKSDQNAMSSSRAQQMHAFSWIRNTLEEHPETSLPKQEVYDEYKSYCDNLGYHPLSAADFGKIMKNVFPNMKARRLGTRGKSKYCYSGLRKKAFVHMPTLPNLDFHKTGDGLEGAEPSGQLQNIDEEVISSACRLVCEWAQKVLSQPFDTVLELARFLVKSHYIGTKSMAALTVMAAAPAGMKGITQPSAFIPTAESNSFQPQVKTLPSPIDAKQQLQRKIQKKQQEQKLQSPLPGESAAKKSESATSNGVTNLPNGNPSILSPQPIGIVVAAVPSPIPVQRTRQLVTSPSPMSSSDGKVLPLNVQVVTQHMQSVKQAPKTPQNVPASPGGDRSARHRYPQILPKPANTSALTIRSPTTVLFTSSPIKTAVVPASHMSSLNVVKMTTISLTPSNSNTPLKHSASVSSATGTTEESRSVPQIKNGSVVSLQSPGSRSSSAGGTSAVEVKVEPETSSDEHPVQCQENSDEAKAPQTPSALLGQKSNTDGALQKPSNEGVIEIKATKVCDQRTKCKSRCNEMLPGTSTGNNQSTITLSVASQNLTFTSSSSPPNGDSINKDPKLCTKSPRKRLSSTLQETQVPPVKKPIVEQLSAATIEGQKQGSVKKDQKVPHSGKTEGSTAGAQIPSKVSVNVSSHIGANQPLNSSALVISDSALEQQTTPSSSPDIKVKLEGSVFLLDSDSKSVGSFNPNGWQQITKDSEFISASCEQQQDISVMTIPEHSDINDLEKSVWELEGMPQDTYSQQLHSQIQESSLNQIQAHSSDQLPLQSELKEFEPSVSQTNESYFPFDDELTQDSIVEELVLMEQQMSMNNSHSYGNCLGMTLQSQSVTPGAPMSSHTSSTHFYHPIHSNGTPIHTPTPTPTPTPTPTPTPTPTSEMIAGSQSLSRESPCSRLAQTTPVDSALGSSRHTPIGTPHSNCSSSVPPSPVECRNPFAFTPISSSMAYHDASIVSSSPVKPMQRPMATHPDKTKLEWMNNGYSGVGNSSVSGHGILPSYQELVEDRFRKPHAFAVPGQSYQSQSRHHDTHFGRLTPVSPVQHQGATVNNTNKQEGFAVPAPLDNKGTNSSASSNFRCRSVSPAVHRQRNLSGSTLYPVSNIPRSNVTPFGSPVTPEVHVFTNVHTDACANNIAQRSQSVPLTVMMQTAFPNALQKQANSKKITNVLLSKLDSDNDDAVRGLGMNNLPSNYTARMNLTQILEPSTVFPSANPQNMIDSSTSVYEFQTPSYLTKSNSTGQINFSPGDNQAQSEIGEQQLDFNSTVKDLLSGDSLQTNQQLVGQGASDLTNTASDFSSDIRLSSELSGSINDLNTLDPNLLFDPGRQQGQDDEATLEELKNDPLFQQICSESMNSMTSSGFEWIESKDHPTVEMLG
# UniProt Q15532, whole entry: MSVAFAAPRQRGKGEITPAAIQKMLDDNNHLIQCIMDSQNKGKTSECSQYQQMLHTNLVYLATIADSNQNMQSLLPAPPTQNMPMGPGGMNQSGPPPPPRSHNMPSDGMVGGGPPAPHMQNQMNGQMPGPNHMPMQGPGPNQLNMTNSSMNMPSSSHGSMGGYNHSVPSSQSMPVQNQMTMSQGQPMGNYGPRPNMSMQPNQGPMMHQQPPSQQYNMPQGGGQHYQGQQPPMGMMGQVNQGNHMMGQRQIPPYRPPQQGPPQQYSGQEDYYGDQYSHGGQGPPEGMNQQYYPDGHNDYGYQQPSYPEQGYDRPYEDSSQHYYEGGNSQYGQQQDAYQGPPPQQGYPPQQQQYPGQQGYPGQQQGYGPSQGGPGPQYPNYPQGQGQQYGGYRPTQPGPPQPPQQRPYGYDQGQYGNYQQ
# UniProt Q3KP66: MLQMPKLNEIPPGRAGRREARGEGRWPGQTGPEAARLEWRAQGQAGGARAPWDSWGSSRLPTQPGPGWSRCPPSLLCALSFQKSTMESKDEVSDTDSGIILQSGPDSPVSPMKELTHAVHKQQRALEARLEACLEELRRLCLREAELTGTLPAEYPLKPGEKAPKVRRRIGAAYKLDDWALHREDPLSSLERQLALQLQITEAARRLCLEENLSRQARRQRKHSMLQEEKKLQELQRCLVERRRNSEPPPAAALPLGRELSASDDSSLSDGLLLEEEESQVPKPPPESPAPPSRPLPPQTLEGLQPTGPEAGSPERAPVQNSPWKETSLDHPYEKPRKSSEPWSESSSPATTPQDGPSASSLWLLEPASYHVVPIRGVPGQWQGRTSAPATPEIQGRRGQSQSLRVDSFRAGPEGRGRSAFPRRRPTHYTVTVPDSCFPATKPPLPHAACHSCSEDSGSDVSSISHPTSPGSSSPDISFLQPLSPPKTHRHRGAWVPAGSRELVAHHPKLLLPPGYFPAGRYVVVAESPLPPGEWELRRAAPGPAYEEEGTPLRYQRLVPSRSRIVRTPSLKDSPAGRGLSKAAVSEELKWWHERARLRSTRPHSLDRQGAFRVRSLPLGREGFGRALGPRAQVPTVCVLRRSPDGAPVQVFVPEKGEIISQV
# UniProt Q16829: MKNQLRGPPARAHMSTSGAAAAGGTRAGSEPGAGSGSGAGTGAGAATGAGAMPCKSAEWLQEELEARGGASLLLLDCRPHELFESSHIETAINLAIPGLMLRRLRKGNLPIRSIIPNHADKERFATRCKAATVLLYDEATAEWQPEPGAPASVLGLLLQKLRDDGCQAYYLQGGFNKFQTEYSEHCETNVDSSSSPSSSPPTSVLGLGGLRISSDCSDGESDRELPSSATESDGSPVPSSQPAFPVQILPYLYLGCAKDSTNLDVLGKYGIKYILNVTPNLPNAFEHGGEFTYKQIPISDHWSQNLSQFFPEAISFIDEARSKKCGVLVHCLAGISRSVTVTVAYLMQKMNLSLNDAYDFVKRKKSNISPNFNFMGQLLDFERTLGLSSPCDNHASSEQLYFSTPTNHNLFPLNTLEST
# UniProt Q15652: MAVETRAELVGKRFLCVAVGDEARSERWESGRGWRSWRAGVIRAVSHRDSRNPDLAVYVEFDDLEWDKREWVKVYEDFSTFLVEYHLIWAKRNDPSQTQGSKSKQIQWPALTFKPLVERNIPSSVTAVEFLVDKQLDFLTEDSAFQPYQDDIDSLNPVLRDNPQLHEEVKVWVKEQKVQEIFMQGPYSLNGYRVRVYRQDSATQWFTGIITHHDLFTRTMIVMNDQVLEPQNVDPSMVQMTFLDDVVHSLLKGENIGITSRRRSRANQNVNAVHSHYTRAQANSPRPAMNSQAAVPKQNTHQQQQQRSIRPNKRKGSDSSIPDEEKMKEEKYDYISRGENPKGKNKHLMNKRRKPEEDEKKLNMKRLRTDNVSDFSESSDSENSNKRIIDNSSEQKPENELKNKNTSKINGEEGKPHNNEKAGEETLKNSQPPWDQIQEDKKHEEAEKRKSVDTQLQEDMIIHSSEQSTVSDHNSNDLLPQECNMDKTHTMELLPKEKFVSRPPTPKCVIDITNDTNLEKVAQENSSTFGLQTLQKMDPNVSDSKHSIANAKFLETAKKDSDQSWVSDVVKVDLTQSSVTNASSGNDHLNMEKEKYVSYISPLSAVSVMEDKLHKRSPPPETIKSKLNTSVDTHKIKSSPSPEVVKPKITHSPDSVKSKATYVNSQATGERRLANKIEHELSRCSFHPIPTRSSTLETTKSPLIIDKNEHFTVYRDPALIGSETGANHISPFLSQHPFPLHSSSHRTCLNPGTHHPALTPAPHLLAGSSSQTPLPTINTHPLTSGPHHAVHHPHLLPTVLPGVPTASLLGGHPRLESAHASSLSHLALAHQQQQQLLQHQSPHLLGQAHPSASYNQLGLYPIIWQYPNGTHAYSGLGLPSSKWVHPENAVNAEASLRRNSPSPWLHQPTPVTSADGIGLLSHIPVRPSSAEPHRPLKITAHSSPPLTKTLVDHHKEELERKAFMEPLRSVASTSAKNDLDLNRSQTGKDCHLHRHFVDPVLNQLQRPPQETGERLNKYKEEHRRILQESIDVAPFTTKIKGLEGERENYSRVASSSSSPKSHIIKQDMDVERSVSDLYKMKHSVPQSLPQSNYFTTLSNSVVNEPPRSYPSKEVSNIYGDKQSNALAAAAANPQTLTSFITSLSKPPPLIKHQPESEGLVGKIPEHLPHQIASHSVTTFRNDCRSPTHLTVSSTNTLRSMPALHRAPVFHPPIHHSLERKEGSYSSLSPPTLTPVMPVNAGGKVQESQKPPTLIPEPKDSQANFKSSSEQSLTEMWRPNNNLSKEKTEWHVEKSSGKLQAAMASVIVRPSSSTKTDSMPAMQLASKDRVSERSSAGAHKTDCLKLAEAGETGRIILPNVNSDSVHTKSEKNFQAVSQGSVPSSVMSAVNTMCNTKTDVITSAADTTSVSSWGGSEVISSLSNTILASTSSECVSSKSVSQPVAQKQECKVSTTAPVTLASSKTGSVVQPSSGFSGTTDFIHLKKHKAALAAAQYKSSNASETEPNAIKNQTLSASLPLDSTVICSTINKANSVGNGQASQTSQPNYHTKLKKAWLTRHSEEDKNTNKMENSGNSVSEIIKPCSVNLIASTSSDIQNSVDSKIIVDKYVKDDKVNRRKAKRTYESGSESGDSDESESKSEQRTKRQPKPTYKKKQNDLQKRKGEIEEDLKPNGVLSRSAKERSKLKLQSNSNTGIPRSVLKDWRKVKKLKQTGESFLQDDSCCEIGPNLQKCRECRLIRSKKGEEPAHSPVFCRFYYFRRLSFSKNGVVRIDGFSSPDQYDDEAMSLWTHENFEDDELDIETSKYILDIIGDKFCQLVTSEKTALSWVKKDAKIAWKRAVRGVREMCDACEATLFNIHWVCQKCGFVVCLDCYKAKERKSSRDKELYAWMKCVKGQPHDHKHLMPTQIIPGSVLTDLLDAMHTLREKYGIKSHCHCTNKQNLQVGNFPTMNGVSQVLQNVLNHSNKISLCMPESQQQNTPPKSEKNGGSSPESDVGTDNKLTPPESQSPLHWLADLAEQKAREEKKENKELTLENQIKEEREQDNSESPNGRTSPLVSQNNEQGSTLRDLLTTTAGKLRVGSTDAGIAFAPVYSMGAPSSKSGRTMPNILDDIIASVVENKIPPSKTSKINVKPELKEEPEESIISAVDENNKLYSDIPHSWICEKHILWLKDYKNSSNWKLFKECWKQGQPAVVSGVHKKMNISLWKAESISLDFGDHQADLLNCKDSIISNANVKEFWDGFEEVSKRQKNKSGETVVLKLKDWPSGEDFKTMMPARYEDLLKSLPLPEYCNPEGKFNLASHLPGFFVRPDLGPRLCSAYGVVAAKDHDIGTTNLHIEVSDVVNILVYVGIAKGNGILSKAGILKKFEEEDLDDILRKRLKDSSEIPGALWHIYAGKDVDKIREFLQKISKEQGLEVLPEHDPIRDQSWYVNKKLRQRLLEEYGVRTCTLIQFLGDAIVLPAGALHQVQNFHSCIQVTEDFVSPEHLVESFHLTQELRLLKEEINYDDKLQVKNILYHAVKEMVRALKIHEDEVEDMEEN
# The other results are listed elsewhere or left out. Small differences around the control level are noise.
# Compound: CN[C@@H]1C[C@H]2O[C@@](C)([C@@H]1OC)n1c3ccccc3c3c4c(c5c6ccccc6n2c5c31)C(=O)NC4 [staurosporine]
# Assay: log2 fold change of tryptic peptide abundance, ligand vs vehicle (limited proteolysis) (log2 ratio); higher = more trypsin-susceptible (destabilized)
# Details: ligand concentration: 20 uM; sample: K562 cleared lysate; digestion: 4 min, 22 C (HT-PELSA RT4min, Orbitrap Astral)
row,Target,log2 fold change
1,"IMMT (peptide sequence: VVSQYHELVVQAR, peptide start residue: 354) (UniProt Q16891)",0.361
2,"RFX7 (peptide sequence: SNTDGALQKPSNEGVIEIK, peptide start residue: 476) (UniProt Q2KHR2)",0.571
3,"SS18 (peptide sequence: MLDDNNHLIQCIMDSQNKGK, peptide start residue: 24) (UniProt Q15532)",0.137
4,"UniProt Q3KP66 (peptide sequence: LEACLEELR, peptide start residue: 130)",-0.0344
5,"UniProt Q16829 (peptide sequence: LRDDGCQAYYLQGGFNK, peptide start residue: 161)",-0.627
6,"JMJD1C (peptide sequence: YVKDDKVNR, peptide start residue: 1607) (UniProt Q15652)",0.787
7,"PCM1 (peptide sequence: LPDEKVELFSK, peptide start residue: 389) (UniProt Q15154)",-0.187
8,"RHEB (peptide sequence: IILEAEKMDGAASQGK, peptide start residue: 163) (UniProt Q15382)",0.483
